Reference: PubChem BioAssay AID504791 (Drosophila RNAi Screening Center, 2011)

Test: 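Factors in Argonaute-based small RNA production and activity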 (primary screen)
Cells: Drosophila S2-derived reporter cells
Knock-down reagent: long dsRNA against Drosophila genes, about 150-250 ng dsRNA per well (siRNA assay); about 80-120 ng (miRNA assay)
Timing: about 5 days (siRNA assay); about 4 days (miRNA assay)
Treatment: copper sulfate induction of reporters: 25 µM (siRNA assay); 200 mM stated (miRNA assay), 1-2 days before reading
Detection: 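Dual luciferase assay: Renilla to firefly signal ratio in each well, scaled to the mean ratio of its plate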
Scale: siRNA reporter hit score: higher = 3 marks a strong hit with raised ratio; -3 a strong hit with lowered ratio
Active means: 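First-pass picks had plate-scaled ratios over 1.5 for the siRNA assay, over 1.6 for the miRNA assay, or under 0.6; two distinct dsRNAs had to score alike on retest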
In all, the deposit lists about 23,000 reagents; shown is a random part of those that have a named target and a result. Of all reagents, 199 (0.86%) were called active. 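Plate-scaled ratios behind the calls are not deposited; printed light signals are raw; many rows marked increased or decreased are still called inactive.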

target gene	DRSC id	siRNA reporter hit score	stable siRNA reporter change	miRNA reporter change	stable assay Renilla, run 1 (luminescence)	stable assay firefly, run 1 (luminescence)	activity call
MESR4	DRSC06901				8156	3.68e5	inactive
CSN4	DRSC07350				4072	3.68e5	inactive
Hel89B	DRSC16700				4523	3.52e5	inactive
Hel89B	DRSC21575			reporter ratio lowered past the hit cutoff	9846	4.09e5	inactive
Pkn	DRSC06809				8306	5.70e5	inactive
Pkn	DRSC06810				5451	3.55e5	inactive
CG32733 (retired record)	DRSC17481				4107	3.40e5	inactive
CG10433	DRSC04068				8465	1.13e6	inactive
Rheb	DRSC12148				6200	4.17e5	inactive
mldr	DRSC18100				5000	3.48e5	inactive
SC35	DRSC02502		reporter ratio raised past the hit cutoff		5967	2.15e5	inactive
SC35	DRSC03425				7306	3.85e5	inactive
Cpr35B	DRSC01949				6316	5.75e5	inactive
Cpr35B	DRSC22797				3948	3.26e5	inactive
CG18666	DRSC02694				6399	3.64e5	inactive
Lsm12a	DRSC19702				4516	3.91e5	inactive
MESR6	DRSC10720				8044	3.07e5	inactive
Sclp	DRSC19851		reporter ratio lowered past the hit cutoff		5739	6.28e5	inactive
CG15800	DRSC04271				6683	3.61e5	inactive
Hex-C	DRSC07079				6170	3.06e5	inactive
CG34241	DRSC09157				5720	2.89e5	inactive
CG9953	DRSC11106				7763	5.07e5	inactive
CG8209	DRSC10970				6011	4.58e5	inactive
CG32170	DRSC09452				6710	4.18e5	inactive
CG32606 (retired record)	DRSC19001	3			3383	2.15e5	inactive
CG32606 (retired record)	DRSC19371				5215	4.91e5	inactive
CG32606 (retired record)	DRSC19372		reporter ratio lowered past the hit cutoff		2895	4.42e5	inactive
CG32606 (retired record)	DRSC19373				3564	4.44e5	inactive
CG32606 (retired record)	DRSC23035				4448	2.95e5	inactive
CG8097	DRSC20079				5783	4.35e5	inactive
yin	DRSC18854				7082	4.41e5	inactive
yin	DRSC21889				8886	5.82e5	inactive
RpL39	DRSC04651				8132	4.32e5	inactive
CG34056	DRSC08374				6299	4.63e5	inactive

4 of these entries, reformatted:
CG32606 (retired record) [DRSC19001] | siRNA reporter hit score = 3; stable assay Renilla, run 1 (luminescence) = 3383; stable assay firefly, run 1 (luminescence) = 2.15e5; activity call = inactive
CG32606 (retired record) [DRSC19371] | stable assay Renilla, run 1 (luminescence) = 5215; stable assay firefly, run 1 (luminescence) = 4.91e5; activity call = inactive
CG32606 (retired record) [DRSC19372] | stable siRNA reporter change = reporter ratio lowered past the hit cutoff; stable assay Renilla, run 1 (luminescence) = 2895; stable assay firefly, run 1 (luminescence) = 4.42e5; activity call = inactive
CG32606 (retired record) [DRSC19373] | stable assay Renilla, run 1 (luminescence) = 3564; stable assay firefly, run 1 (luminescence) = 4.44e5; activity call = inactive
